This is one part of the list.
Target: T1, OsSMF1 (Oryza sativa, UniProt Q6ZLB0 1-436)
T1 sequence: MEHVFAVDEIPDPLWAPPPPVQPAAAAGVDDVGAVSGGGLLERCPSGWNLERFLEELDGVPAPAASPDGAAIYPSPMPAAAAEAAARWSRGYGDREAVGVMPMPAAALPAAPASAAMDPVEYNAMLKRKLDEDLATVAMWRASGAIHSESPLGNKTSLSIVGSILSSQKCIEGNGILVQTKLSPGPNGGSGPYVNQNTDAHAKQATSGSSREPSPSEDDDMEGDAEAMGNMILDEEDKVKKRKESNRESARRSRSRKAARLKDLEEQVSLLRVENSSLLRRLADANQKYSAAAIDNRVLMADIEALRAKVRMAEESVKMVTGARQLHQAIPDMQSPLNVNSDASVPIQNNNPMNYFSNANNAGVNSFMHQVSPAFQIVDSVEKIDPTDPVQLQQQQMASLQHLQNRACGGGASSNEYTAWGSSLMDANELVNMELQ
Test: protein-binding microarray (RPBM); PBS, 2% BSA, 51.3 ng/ul salmon testes DNA, 50 uM zinc acetate, 200 nM TF, 25 C, 1 h; high values mean tight binding
Settings: protein: recombinant; tags: N-terminal polyhistidine and DsRed monomer fusion (pET32a); chain copies: 2; label: CyDye5-dUTP incorporated in the synthesized complementary strand; 3' TTTTT single-stranded linker to array surface; dsDNA, one strand shown
Outline: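 Transcription factors were made in E. coli BL21-CodonPlus as N-terminal fusions to a polyhistidine tag and DsRed, then purified on Ni–NTA. After primer extension with Cy5-dUTP and blocking with 2% BSA, a custom Agilent array was exposed for 1 h at 25 °C to 200 nM protein in PBS, 2% BSA, salmon testes DNA and 50 µM zinc acetate. Washed arrays were scanned on an Axon 4000B, and the binding signal is per-feature fluorescence intensity in arbitrary units.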

Row | Sequence | binding signal
1 | TGCCGGTTTGGATAGGAAAGTTGAGCAGCCTGGATTTTGTCGGAGTCACCTAGTGCAG | 3220 fluorescence intensity (a.u.)
2 | AGTGCACCGCTGTCCCCATTGAGATGGAGTCAGCACGAGACGGAGTCACCTAGTGCAG | 5080 fluorescence intensity (a.u.)
3 | CCGCGTCCGTACTCTCTAGCCTGCGGGTAAGCAACGAACTCGGAGTCACCTAGTGCAG | 45200 fluorescence intensity (a.u.)
4 | AGACCAAGTCAAATCAGCCACGTAGATGCCACATCAGCCGCGGAGTCACCTAGTGCAG | 35900 fluorescence intensity (a.u.)
5 | AATGGGAGGAGATGGAAGGATGGCAACTCCGCCCGTTACACGGAGTCACCTAGTGCAG | 13500 fluorescence intensity (a.u.)
6 | GAGGATTTAGAGCACGAATCACAAAGTCATGTGGCTGACGCGGAGTCACCTAGTGCAG | 4110 fluorescence intensity (a.u.)
7 | TTTGATGGGAATTTGTTTCAGATATGCTTACGTGCACATACGGAGTCACCTAGTGCAG | 7570 fluorescence intensity (a.u.)
8 | ACACAAGTGAGTGGGTGACGCGACGATGCTAGCCCGATGCCGGAGTCACCTAGTGCAG | 6260 fluorescence intensity (a.u.)
9 | GTACTTTCTTGACTAATCATCTATTGTGTGCACACTTTTCCGGAGTCACCTAGTGCAG | 3370 fluorescence intensity (a.u.)
10 | ATGCACAACTCGAGCTCCACATCACAGCTGCAGCAACGTACGGAGTCACCTAGTGCAG | 4730 fluorescence intensity (a.u.)
11 | TCGAACCAATAGTTTCATAGTGACTCATTAGCATATAATTCGGAGTCACCTAGTGCAG | 4980 fluorescence intensity (a.u.)
12 | CCTCTCTGATTCGTCACCGCCACCGCCGCGTCGTCCCGCGCGGAGTCACCTAGTGCAG | 6810 fluorescence intensity (a.u.)
13 | TACGCTCACGAGTAAGGAGATGTGGTCGCCATTCATATCACGGAGTCACCTAGTGCAG | 3310 fluorescence intensity (a.u.)
14 | AGCACGCGAAACAAGTCAGGCGATTGCCAGTTTGCCACCCCGGAGTCACCTAGTGCAG | 22700 fluorescence intensity (a.u.)
15 | CACTTTGCCATGTCACACTTTAGTTATGCCACATGTGTTTCGGAGTCACCTAGTGCAG | 17400 fluorescence intensity (a.u.)
16 | TTAGAAATATAAATGACACATCTCTACAAGTTGTAAGTACCGGAGTCACCTAGTGCAG | 3760 fluorescence intensity (a.u.)
17 | AGCATCTCCGATGTCCATGTCGTCGTGACGTCACCACACGCGGAGTCACCTAGTGCAG | 28200 fluorescence intensity (a.u.)
18 | GGAGTGAGGACATGACAAATCATTTTGTGCTCAAGAGACTCGGAGTCACCTAGTGCAG | 3200 fluorescence intensity (a.u.)
19 | ATTACTTACTTTGATTCAATTCCACATTATTTAAATTATCCGGAGTCACCTAGTGCAG | 21900 fluorescence intensity (a.u.)
20 | CTCGATCGAGCCCATCCACGTGCCGACTGCCCACGAGTCACGGAGTCACCTAGTGCAG | 3500 fluorescence intensity (a.u.)
21 | AGCTCAAGCTCGGACTCTGCCCGCCGCTTCGCCATGACATCGGAGTCACCTAGTGCAG | 15500 fluorescence intensity (a.u.)
22 | AGTACTGATCATGACATTACTTACCAATAATCAACTGTATCGGAGTCACCTAGTGCAG | 3430 fluorescence intensity (a.u.)
23 | AACAGCGACAGTGCTCAACTGCCAGTGCCAGACCAGGACACGGAGTCACCTAGTGCAG | 17700 fluorescence intensity (a.u.)
24 | TTAGCACCACGCCTCGATGACACATTGGCACCGATGGGCACGGAGTCACCTAGTGCAG | 4380 fluorescence intensity (a.u.)
25 | TATTTTGTAGGAGCACTGCTACACGTACTAAATTTCTTACCGGAGTCACCTAGTGCAG | 3210 fluorescence intensity (a.u.)
26 | CACCATCTCTATATGCAAGATTGGACGCGTGGCATCTCCTCGGAGTCACCTAGTGCAG | 9460 fluorescence intensity (a.u.)
27 | CGCCCACCCACCTCCGCACCCACGTGGCCACGCCCTCCTACGGAGTCACCTAGTGCAG | 13600 fluorescence intensity (a.u.)

Row | Sequence | binding signal
28 | CCCTTAAACCTCCGTGTCTTCCTCGTGTTAACTCCTCCACCGGAGTCACCTAGTGCAG | 3750 fluorescence intensity (a.u.)
29 | AATTTGTCCCAATTATTAAGTCGCAGATCTCCGCGAGGAACGGAGTCACCTAGTGCAG | 3700 fluorescence intensity (a.u.)
30 | ATATTTAAGGCGTTATATCACAACTACAGATTTAATACCACGGAGTCACCTAGTGCAG | 3420 fluorescence intensity (a.u.)
31 | GCTAAGCACACACACACACTGCATCAGTACCTTGGTTTGGCGGAGTCACCTAGTGCAG | 3200 fluorescence intensity (a.u.)
32 | CGAGACCGACTGATGCTACAACTTCTGTCCTTGCTCCGGCCGGAGTCACCTAGTGCAG | 3180 fluorescence intensity (a.u.)
33 | CCACCGCCAGTCCGCCACCTCCACCTCCACCTCCACCCGACGGAGTCACCTAGTGCAG | 3450 fluorescence intensity (a.u.)
34 | AAATTACTCTATGATGATCTGTCTTCTGTTGCAGTTATCACGGAGTCACCTAGTGCAG | 3180 fluorescence intensity (a.u.)
35 | ACCGGCCGTGCCCACCAACACGCATGCAGATTGCAGACGACGGAGTCACCTAGTGCAG | 17200 fluorescence intensity (a.u.)
36 | CAGGTGTGATTGTCATGCCCCAGAGGATGTGCCTGAGTCACGGAGTCACCTAGTGCAG | 5890 fluorescence intensity (a.u.)
37 | GTCGGTCCTGACCCACACGTTCTCCCGCCCAATTTCCTCGCGGAGTCACCTAGTGCAG | 3190 fluorescence intensity (a.u.)
38 | GCTGCCACTTCACAAGCAACTTAACTCGACAGCCAACAATCGGAGTCACCTAGTGCAG | 23500 fluorescence intensity (a.u.)
39 | CAAATAAAACAAACCAACAATTGTTGATTTGTACCCAGTGCGGAGTCACCTAGTGCAG | 3320 fluorescence intensity (a.u.)
40 | TGAACTGCATGGCCTCCCCGAGCTCCGCCACTTCACGTGCCGGAGTCACCTAGTGCAG | 3880 fluorescence intensity (a.u.)
41 | CGGGTTGGGAATTGGAATTTGCATCTATCTGCCATAGAAGCGGAGTCACCTAGTGCAG | 3210 fluorescence intensity (a.u.)
42 | GTGAGATAGATCAATATGTGTGATGTGTTGCTTTACAATCCGGAGTCACCTAGTGCAG | 4460 fluorescence intensity (a.u.)
43 | CCTCGCCTTGCCTCGCTGCGTCACCAACCTTGACGGCGACCGGAGTCACCTAGTGCAG | 4660 fluorescence intensity (a.u.)
44 | TCAGAATGCGTGTGATGTAAAAGTTCGAGAAGACTTTGTTCGGAGTCACCTAGTGCAG | 3210 fluorescence intensity (a.u.)
45 | TTGGATAGGTAGGAACGGATCATCTCATTCCATCCACGTCCGGAGTCACCTAGTGCAG | 3390 fluorescence intensity (a.u.)
46 | TTGTGATCAATTCGTCAAATTTGTAATTACTTCATCCTGACGGAGTCACCTAGTGCAG | 3650 fluorescence intensity (a.u.)
47 | TCAAGTAGCTAATAATGTGGTTCTGTCATTTGTAGTTTTGCGGAGTCACCTAGTGCAG | 3570 fluorescence intensity (a.u.)
48 | CCGCCTGACACGTGTAAGAGCAAGTTTAATAGTATAGCCCCGGAGTCACCTAGTGCAG | 13800 fluorescence intensity (a.u.)
49 | CCGTCGTCTTCACCTTCGCCACCGTCACCGCCGCCGCCGCCGGAGTCACCTAGTGCAG | 4440 fluorescence intensity (a.u.)
50 | AAACGATAATATACCTTGTATAGTCATCCAACTCTTATTTCGGAGTCACCTAGTGCAG | 3630 fluorescence intensity (a.u.)
51 | GCTTCCAATGCCACGCCGAGGAACCTCATATGTACCAGTTCGGAGTCACCTAGTGCAG | 3430 fluorescence intensity (a.u.)
52 | CTCCACGGATCCGCGCTCAGGCCACGTCGACACGGTCCCCCGGAGTCACCTAGTGCAG | 9080 fluorescence intensity (a.u.)
53 | ATACACACTACATATATGAATGATTCAGTATGCATCCGTCCGGAGTCACCTAGTGCAG | 21600 fluorescence intensity (a.u.)
54 | CGTGGGTCGTGGTGATGACATCTTGTATTCCTTTTCACTACGGAGTCACCTAGTGCAG | 4700 fluorescence intensity (a.u.)

Fetched one by one from above, five records:
Row | Sequence | binding signal
11 | TCGAACCAATAGTTTCATAGTGACTCATTAGCATATAATTCGGAGTCACCTAGTGCAG | 4980 fluorescence intensity (a.u.)
12 | CCTCTCTGATTCGTCACCGCCACCGCCGCGTCGTCCCGCGCGGAGTCACCTAGTGCAG | 6810 fluorescence intensity (a.u.)
24 | TTAGCACCACGCCTCGATGACACATTGGCACCGATGGGCACGGAGTCACCTAGTGCAG | 4380 fluorescence intensity (a.u.)
48 | CCGCCTGACACGTGTAAGAGCAAGTTTAATAGTATAGCCCCGGAGTCACCTAGTGCAG | 13800 fluorescence intensity (a.u.)
53 | ATACACACTACATATATGAATGATTCAGTATGCATCCGTCCGGAGTCACCTAGTGCAG | 21600 fluorescence intensity (a.u.)

From article PMC7819943, “Rice protein-binding microarrays: a tool to detect cis-acting elements near promoter regions in rice”
